In US7012144B2, “Quinolone carboxylic acid derivatives” (Korea Research Institute of Chemical Technology, priority 2001, dated 2006):

system: calf thymus topoisomerase II versus gyrase of E. coli; experiment: Selectivity index (IC100 Topo II versus IC100 Gyrase); assay type: biochemical; conditions: selectivity index calculated from IC100, Topo II and IC100, Gyrase

Row | SMILES | S.I.
1 | O=C(O)c1cn(C2CC2)c2cc(N3CCNCC3)c(F)cc2c1=O [Ciprofloxacin, 1-cyclopropyl-6-fluoro-7-(piperazin-1-yl)-4-oxoquinoline-3-carboxylic acid, reference compound] | 1,000
2 | COc1c(N2CCC(CN)(c3ccccn3)C2)c(F)cc2c(=O)c(C(=O)O)cn(C3CC3)c12 (stereo not shown) [Compound 3, 1-cyclopropyl-6-fluoro-8-methoxy-7-[{3-aminomethyl-3-(pyridin-2-yl)pyrrolidin}-1-yl]-4-oxo-1,4-dihydroquinolin-3-carboxylic acid] | 5,000
3 | COc1c(N2CCC(N)(c3ccncc3)C2)c(F)cc2c(=O)c(C(=O)O)cn(C3CC3)c12 (stereo not shown) [Compound 11, 1-cyclopropyl-6-fluoro-8-methoxy-7-[{3-amino-3-(pyridin-4-yl)pyrrolidin}-1-yl]-4-oxo-1,4-dihydroquinolin-3-carboxylic acid] | 2,500
4 | CC1CN(c2c(F)c(N)c3c(=O)c(C(=O)O)cn(C4CC4)c3c2F)CC(C)N1 (stereo not shown) [Sparfloxacin, 1-cyclopropyl-5-amino-6,8-difluoro-7-(3,5-dimethylpiperazin-1-yl)-4-oxoquinoline-3-carboxylic acid, reference compound] | 500
